Experimental data: patent US20080085889A1, “Amidomethyl-Substituted 1-(Carboxyalkyl) Cyclopentyl-Carbonylamino-Benzazepine-N-Acetic Acid Compounds, Process and Intermediate Products for Their Preparation and Pharmaceutical Compositions Containing Them” (SOLVAY PHARMACEUTICALS GmbH, priority 2003, published 2008)

System: NEP (prepared from pig kidney cortex)
Assay: Enzymatic breakdown of CNP and VIP by NEP and its inhibition, in vitro, HPLC
Type: biochemical
Settings: no inhibitor, 37° C.
Method: The inhibition of the enzymatic breakdown of CNP and VIP by the compounds used according to the invention was measured in an enzymatic in vitro assay according to the following protocol:
All test compounds were dissolved in DMSO at 10 mM and further diluted with assay buffer.
80 μl of assay buffer, 10 μl of enzyme working solution (NEP or hSEP) and 10 μl of peptide stock solution (VIP or CNP) were mixed in an Eppendorf vial and incubated for 120 min. at 37° C. The enzymatic reaction was subsequently terminated by heating to 95° C. for 5 min. After centrifugation (Heraeus Biofuge B, 3 min) the supernatant was subjected to HPLC.
70 μl of assay buffer, 10 μl of enzyme working solution (NEP or hSEP) and 10 μl of a test compound solution were mixed in an Eppendorf vial and preincubated at 37° C. for 15 minutes. Then, 10 μl of peptide stock solution (VIP or CNP) was added and the reaction mixture was incubated at 37° C. for 60 min. to allow enzymatic hydrolysis. […]
All peptides were detected by absorbance at 214 nm (UV spectroscopy). The percentage (=%) of hydrolysis was calculated on the basis of the peak area of the undegraded peptide for an enzyme containing sample Y in correlation to a sample containing the same concentration of peptide without enzyme (blank) by the following equation: % hydrolysis=100*(blank−Y) […]

Row | Substance | breakdown of CNP by NEP, degradation at t = 2 h [%] | breakdown of VIP by NEP, degradation at t = 2 h [%]
1 | CNP: c-type natriuretic peptide, CNP (32-53), substrate of NEP and hSEP; supplier Bachem [reference compound] | 39 | –
2 | VIP: vasoactive intestinal peptide, substrate of NEP and hSEP; supplier Bachem [reference compound] | – | 28
